From patent US20100105626A1, “Novel Analogues of Antimicrobial and Anticancer Peptide Synthesized and Produced from Gaegurin 5” (PROMEDITECH, INC, priority 2006, published 2010)
At least one peptide structure holds a part that was inferred or is arguable (an end, a ring closure or a residue). Where no end group is shown, it is not given here.

What was measured:
Shigella dysentariae = assay: Antimicrobial activity, MIC by standard broth microdilution; type: cell-based; conditions: Gram negative
Experimental: (§1) Antimicrobial activity was determined by the standard broth microdilution method by measuring the MIC values against diverse microorganisms. In brief, Luria-Bertani medium was used as a broth medium. 30 μl of sample (2 mg/ml) prepared from Example 1 and 270 μl of fluid medium were added to lane 1 well of 96-well microtiter plates and to remaining lanes of the wells, only 150 μl of medium was added thereto. 150 μl of sample solution in lane 1 was mixed with lane 2 to prepare diluted solution (×2). With similar diluting method to the above described method, serial dilution was performed to prepare 150 μl of diluted drug solution (×2) to the extent that the final drug concentration reached to the range from 1.6 to 200 μg/ml in respective well. 25 μl of the cell culture being grown to 10^6-10^8 colony forming unit/ml in 3 ml of broth was added to each well and the micro-titer plate was incubated for overnight at 37° C.

Klebsiella pneumoniae = assay: as above; type: cell-based; conditions: Gram negative
Experimental: as §1

| Substance | Minimal inhibitory concentration (Shigella dysentariae) [µg/mL] | Minimal inhibitory concentration (Klebsiella pneumoniae) [µg/mL] |
| --- | --- | --- |
| FLGWLFKWAKK-NH2 [model 25, F-L-G-W-L-F-K-W-A-K-K] | 25 | – |
| FLGWLFKWAWK-NH2 [model 27, F-L-G-W-L-F-K-W-A-W-K] | – | 12.5 |
| FLKWLFKWAKK-NH2 [model 26, F-L-K-W-L-F-K-W-A-K-K] | 25 | – |
| FLWWLFKWAWK-NH2 [model 28, F-L-W-W-L-F-K-W-A-W-K] | >200 | – |
